Data as given in PubChem BioAssay AID1259254 (NCATS, 2017)
The deposit covers about 59,000 reagents; shown is a part drawn at random. In the full data, about 1,550 (2.6%) were called active. 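G2 share is only a proxy for re-replication; each gene was hit by three separate siRNAs, and active genes were retested.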 The numbers tell different reagents against one gene apart. Not all columns of the deposit are shown. The record does not give: the amount of reagent.

- Purpose: 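Finding genes that stop cells copying their DNA twice in one cycle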 (primary screen)
- Cells: human HCT116 colorectal cancer cells
- Reagent: single siRNA against human genes
- Timing: 3 days
- Measured: 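Nuclei stained with Hoechst and imaged; cell-cycle phase assigned by DNA content; G2 share scaled per plate, non-targeting siRNA 0%, GMNN siRNA 100%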
- Reading the numbers: G2 robust z-score and G2 cells, % of GMNN control: higher = more G2 cells, more excess DNA replication
- Active means: 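Active siRNAs have a G2 robust z of 5 or more median absolute deviations over the median, which in these data means about 38% or higher of GMNN control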

| gene | reagent | G2 robust z-score | G2 cells, % of GMNN control | activity call |
| --- | --- | --- | --- | --- |
| CTSF | 1 | -0.522 | -0.704 | inactive |
| CTSF | 2 | -0.527 | -0.742 | inactive |
| CTSF | 3 | -0.0416 | 2.67 | inactive |
| LDLRAP1 | 1 | 0.126 | 3.86 | inactive |
| LDLRAP1 | 2 | -0.195 | 1.6 | inactive |
| LDLRAP1 | 3 | -0.667 | -1.73 | inactive |
| SAP30 | 1 | 0.328 | 5.28 | inactive |
| SAP30 | 2 | 1.41 | 12.9 | inactive |
| SAP30 | 3 | 1.31 | 12.2 | inactive |
| ZNF276 | 1 | 0.233 | 4.6 | inactive |
| ZNF276 | 2 | 1.48 | 13.4 | inactive |
| ZNF276 | 3 | -0.256 | 1.16 | inactive |
| GSKIP | 1 | -0.304 | 0.826 | inactive |
| GSKIP | 2 | 0.508 | 6.54 | inactive |
| GSKIP | 3 | 0.551 | 6.84 | inactive |
| FOLR2 | 1 | 2 | 17 | inactive |
| FOLR2 | 2 | -0.213 | 1.47 | inactive |
| FOLR2 | 3 | -0.518 | -0.679 | inactive |
| NBPF3 | 1 | 0.93 | 9.51 | inactive |
| NBPF3 | 2 | -0.735 | -2.2 | inactive |
| NBPF3 | 3 | 0.874 | 9.12 | inactive |
| EGF | 1 | -0.961 | -3.79 | inactive |
| EGF | 2 | 0.111 | 3.75 | inactive |
| EGF | 3 | 0.944 | 9.61 | inactive |
| LOC728660 | 1 | -0.225 | 1.39 | inactive |
| LOC728660 | 2 | -0.896 | -3.34 | inactive |
| LOC728660 | 3 | 1.41 | 12.9 | inactive |
| DEFA6 | 1 | 0.576 | 7.02 | inactive |
| DEFA6 | 2 | -0.0464 | 2.64 | inactive |
| DEFA6 | 3 | 0.516 | 6.6 | inactive |
| UGT2B7 | 1 | -0.539 | -0.824 | inactive |
| UGT2B7 | 2 | -0.0859 | 2.36 | inactive |
| UGT2B7 | 3 | -0.0539 | 2.59 | inactive |
| SNX7 | 1 | 1.23 | 11.6 | inactive |
| SNX7 | 2 | -0.041 | 2.68 | inactive |
| SNX7 | 3 | -0.528 | -0.75 | inactive |
| THAP7 | 1 | -0.534 | -0.791 | inactive |
| THAP7 | 2 | 7.05 | 52.6 | active |
| THAP7 | 3 | 1.58 | 14.1 | inactive |
| PANK2 | 1 | 0.927 | 9.49 | inactive |
| PANK2 | 2 | 0.193 | 4.33 | inactive |
| PANK2 | 3 | 3.04 | 24.3 | inactive |
| TMEM247 | 1 | -0.275 | 1.03 | inactive |
| TMEM247 | 2 | 6.21 | 46.7 | active |
| TMEM247 | 3 | -0.436 | -0.099 | inactive |
| AK2 | 1 | -1.09 | -4.74 | inactive |
| AK2 | 2 | -0.21 | 1.49 | inactive |
| AK2 | 3 | 0.651 | 7.54 | inactive |

Entries above with an active call, once more:
| gene | reagent | G2 robust z-score | G2 cells, % of GMNN control | activity call |
| --- | --- | --- | --- | --- |
| THAP7 | 2 | 7.05 | 52.6 | active |
| TMEM247 | 2 | 6.21 | 46.7 | active |
